Results reported in PubChem BioAssay AID2685 (National Center for Advancing Translational Sciences (NCATS), 2010).
Screen size: about 320,000 compounds; about 2,100 (0.66%) were called active. This list was built around the results that the source calls inconclusive (neither active nor inactive); the mix of calls is not that of the screen. Calls follow the shape of the dose curve; as a rule, active = well fitted inhibition curve with a large enough effect in the signal ratio, with a control signal flat (not every such curve was filed as active); inconclusive = small, poorly fitted or top-dose-only effect, or effect the other way, or a change in a side signal; inactive = flat fitted curve, though single readings scatter; the % refers to the signal ratio. A potency beside an inconclusive call is a rough fit, not a confirmed value.

Test: qHTS Assay for Lipid Storage Modulators in Drosophila S3 Cells
Conditions: BODIPY lipid droplet fluorescence, 18-24 h, cells fed with added oleic acid; lipid storage change, negative = inhibition: at 46.1 µM (top of the series) unless noted
How it was run: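 Drosophila S3 cells loaded with oleic acid (400 uM, as added) and compounds at several concentrations; lipid droplets imaged by 488-nm laser-scanning cytometry, 500–530 nm intensity and object ratio to cell channel. Percent activity normalized to 20 uM Triacsin C.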
% is scaled to controls: 0 for no effect and ±100 for the full control effect; potency is read from the fitted curve at half-maximal effect.

| SMILES | lipid storage change, negative = inhibition | Potency |
| --- | --- | --- |
| Cc1cccc(Nc2c([N+](=O)[O-])ccc3nonc23)c1C | inconclusive: 75.6% |  |
| CCc1cc(=O)oc2c(C)c(OC(C)C(=O)NCCCn3ccnc3)ccc12 (centres undefined) |  | inconclusive: 32.6 µM [falling, partial curve, poor fit] |
| Cc1ccc(-c2noc(C3CCCN(C(=O)c4ccccc4Br)C3)n2)cc1 (centres undefined) |  | active: 18.4 µM |
| COc1cc(OC)c(C(=O)NNC(=O)CN(C)S(=O)(=O)c2ccc(Cl)cc2)cc1OC | inconclusive: 12.2% |  |
| O=C(O)c1cccc(NC(=S)N/N=C/c2cccc(O)c2)c1 | inconclusive: 24.5% |  |
| O=C(COc1cccc2c1CCNC2=O)Nc1cccc(C(F)(F)F)c1 |  | inconclusive: 7.31 µM [activator, partial curve] |
| COc1cccc(S(=O)(=O)NCc2ccc(C(=O)N3CCN(C)CC3)cc2)c1 |  | inconclusive: 20.6 µM [falling, single point] |
| COCc1[nH][nH]c(=O)c1C=Nc1ccc(C(F)(F)F)cc1 | inconclusive: -0.196% |  |
| Cc1c(OCC(=O)NCCCN2CCOCC2)ccc2c(-c3ccccc3)cc(=O)oc12 | inconclusive: -9.17% |  |
| COC(=O)COc1cccc2c(=O)n(CC(=O)NCCc3ccccc3)ccc12 | inconclusive: 20.2% |  |
| CCCCN(CCCC)C(=O)CSc1nnc(-c2cc(OC)c(OC)c(OC)c2)o1 | inconclusive: -1.47% |  |
| Cc1ccc(-c2noc(C3CCCN(C(=O)c4cccc(F)c4)C3)n2)cc1 (centres undefined) |  | inconclusive: 29.1 µM [cytotoxic, single point] |
| O=c1cc(Cc2ccccc2)[nH]c(=S)[nH]1 | inconclusive: -17.8% |  |
| C=CCn1c(=NC(=O)c2ccco2)sc2cc(C(=O)OC)ccc21 |  | inconclusive: 5.8 µM [activator, partial curve, poor fit] |
| Cc1csc(SCC(=O)N(C)CC(=O)Nc2ccc(F)cc2)n1 | inconclusive: -2.66% |  |
| CCN(c1ccc(C(=O)CSc2nnc(C3CC3)n2C2CC2)cc1)S(C)(=O)=O | inconclusive: 2.96% |  |
| CC(=O)Nc1ccc(NC(=O)c2ccccc2-n2cnnn2)cc1 | inconclusive |  |
| O=C(Cc1ccccc1F)Nc1nc(-c2cccnc2)cs1 | inconclusive: -79% |  |
| Nc1nc(Nc2ccccc2)nc2ccccc12 |  | inconclusive: 1.64 µM [activator, full curve, poor fit] |
| CCOC(=O)c1c(NC(=O)c2cccc([N+](=O)[O-])c2C(=O)O)sc2c1CCCC2 |  | inconclusive: 0.103 µM [activator, full curve, poor fit] |
| O=C(COC(=O)Cn1cnc2ccccc21)NCc1ccc(F)cc1 | inactive: 6.01% |  |
| CCCC(C(=O)N(C)CC(=O)Nc1ccc(N2CCOCC2)cc1)c1ccccc1 (centres undefined) |  | inconclusive: 0.651 µM [activator, single point] |
| O=C(NCc1ccco1)c1ccc(Cn2c(=O)c3sccc3n(Cc3cccc(F)c3)c2=O)cc1 |  | inconclusive: 3.66 µM [activator, single point] |
| CC(C)CC(c1nnnn1Cc1ccco1)N1CCN(C2CCCC2)CC1 (centres undefined) | inconclusive: -11.8% |  |
| CC(C)CCN(C(=O)c1csnn1)C(C(=O)NC1CCCCC1)c1ccc(F)cc1 (centres undefined) | inconclusive: -121% |  |

| SMILES | lipid storage change, negative = inhibition | Potency |
| --- | --- | --- |
| CN(C(=O)CN1C(=O)NC2(CCc3ccccc32)C1=O)C1CCS(=O)(=O)C1 (centres undefined) | inconclusive: 18.2% |  |
| Cc1ccc(C)c(NC(=O)CCNS(=O)(=O)c2ccc3[nH]c(=O)oc3c2)c1 | inconclusive: 51.7% |  |
| Cn1c(=O)[nH]c(=O)c2c1nc(N1CCCC1)n2CCO | inconclusive: -40.9% |  |
| O=C(N/N=C1\CCCc2oc(C(=O)O)cc21)c1ccccc1 | inconclusive: 11.9% |  |
| COc1ccc2c(c1)C(=O)[C@@H](OC(=O)NCc1ccc3c(c1)OCO3)[C@H](c1ccc(OC)c(Br)c1)O2 | inconclusive: 4.42% |  |
| O=C1Nc2c(c(=O)[nH]c(=O)n2-c2ccccc2)C(C(F)(F)F)(C(F)(F)F)N1 |  | active: 25.9 µM |
| CCCCc1nc2cc(C(=O)N3CCC(OC)CC3)ccc2o1 | inconclusive: 77% |  |
| COCCn1c(C)cc(/C=C2/NC(=O)N(c3cccc(Cl)c3)C2=O)c1C |  | inconclusive: 0.651 µM [rising, full curve] |
| O=C(NC(=S)NCC1CCCO1)c1ccc([N+](=O)[O-])cc1 (centres undefined) | inconclusive: -27.6% |  |
| Cc1ccc(CNS(=O)(=O)N(C)C)cc1 |  | inconclusive: 14.6 µM [falling, partial curve] |
| Cc1oc(-c2ccccc2Cl)nc1Cn1cccc1C1=NC(c2ccccc2)CO1 (centres undefined) | inconclusive: -14.2% |  |
| COc1ccc(NS(=O)(=O)c2cc(NC(=O)CCNC(=O)c3ccco3)ccc2OC)cc1 | inconclusive |  |
| CCCn1nc(Oc2nc(NC(C)C)nc(N(C)C)n2)ccc1=O | inconclusive: -48.7% |  |
| O=C(O)c1ccc2c(=O)[nH]c(CCl)nc2c1 |  | inconclusive: 29.1 µM [cytotoxic, single point] |
| Cc1ccc(NC(=O)CCCNC(=O)c2ccc(Cl)cc2)cc1S(=O)(=O)N1CCCCC1 | inconclusive |  |
| CCN(CC)c1ccc(C(=O)OCC(=O)N(C(C)C)C(C)C)cc1 | inconclusive: 4.76% |  |
| O=C(O)CCS(=O)(=O)Cc1ccccc1Cl |  | inconclusive: 0.731 µM [falling, single point] |
| Cc1ccc2nc3c(nc2c1C)C(O)=C3O | inconclusive: 4.8% |  |
| COc1ccc(Cn2c(O)c(/C=N/NC(=O)c3cccnc3)c3ccccc3c2=O)cc1 | inconclusive: 9.21% |  |
| CCOC(=O)C1CCCN(S(=O)(=O)Cc2ccccc2Cl)C1 (centres undefined) | inconclusive: -34.9% |  |
| O=C(CCNS(=O)(=O)c1ccc2c(c1)CCC(=O)N2)NCc1ccc2c(c1)OCO2 | inconclusive: 0.0989% |  |
| O=C1C2C(c3ccccc3)CC=CC2[C@H](c2ccc(C(F)(F)F)cc2)N1Cc1ccccc1 (some centres undefined) |  | active: 18.4 µM |
| CCOC(=O)[C@H]1[C@H]2COc3ccc(OC)cc3[C@H]2N2C(=O)CNC(=O)[C@@]12C |  | inconclusive: 1.16 µM [falling, single point] |
| Cc1ccc2c(c1)c1c(c(=O)n(-c3ccccc3C)c(=O)n1CC(=O)NCC1CCCO1)n2C (centres undefined) |  | inconclusive: 4.11 µM [activator, single point] |
